Data as given in the supplement of paper PMC4635364.
Counter-ions that a name gives are not always drawn. The list shows a part of the results. Single values are uncertain here, since repeats match poorly.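 Cells: ReNCell VM human fetal ventral-midbrain neural progenitors, differentiated mitogen-free. Blinded raters compared doublecortin-stained (early neurons) or tyrosine hydroxylase-stained (dopaminergic neurons) images with untreated wells, where 0 means no change. After repeats and both raters were averaged, compounds scoring 2 or above became hits for retesting.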

tested on: ReNCell VM; assay: dopaminergic neuron differentiation score (TH+ cell fraction vs untreated, manual image score) (score (0 to 3)); higher = more TH+ dopaminergic neuron differentiation; details: library: Spectrum; 2 uM; 4 weeks; BDNF 10 ng/ml + GDNF 10 ng/ml

Dopaminergic neuron differentiation score, inactive:
NCc1ccccc1CC(=O)N[C@@H]1C(=O)N2C(C(=O)O)=C(CSc3nnnn3CC(=O)O)CS[C@H]12 0
C=C(C)[C@@H]1CC[C@]2(C(=O)O)CC[C@]3(C)[C@H](CC[C@@H]4[C@@]5(C)CC[C@H](O)C(C)(C)[C@@H]5CC[C@]43C)[C@@H]12 0
OCCN1C[C@H](O)[C@@H](O)[C@H](O)[C@H]1CO 0
C=CCCCCCCCCC(=O)O 0
O=C(CCc1ccc(O)cc1)c1c(O)cc(O)cc1O 0
COC(=O)C1=C(C)NC(C)=C(C(=O)OC)C1c1ccccc1[N+](=O)[O-] 0
NCCNC(=O)c1ccc(Cl)cc1 0
CC1CC(OC(=O)c2ccccc2O)CC(C)(C)C1 (configuration not stated) 0
CC(=O)CC(c1ccc([N+](=O)[O-])cc1)c1c(O)c2ccccc2oc1=O (configuration not stated) 0
CC(C)C(=O)Nc1ccc([N+](=O)[O-])c(C(F)(F)F)c1 0
O=C(O[C@@H]1Cc2c(O)cc(O)cc2O[C@@H]1c1cc(O)c(O)c(O)c1)c1cc(O)c(O)c(O)c1 0
CC1(C)[C@H](C(=O)O)N2C(=O)C[C@H]2S1(=O)=O 0
O=C(O)c1ccc[n+]([O-])c1 0
CCOc1ccc2nc3cc(N)ccc3c(N)c2c1 0
CN(C)CCOC(C)(c1ccccc1)c1ccccn1 (configuration not stated) 0
COc1cc(C(=O)NCc2ccc(OCCN(C)C)cc2)cc(OC)c1OC 0
OCCN1CCN(CCCN2c3ccccc3Sc3ccc(C(F)(F)F)cc32)CC1 1
C[C@H](CCC(=O)NCC(=O)O)[C@H]1CC[C@H]2[C@@H]3[C@H](O)C[C@@H]4C[C@H](O)CC[C@]4(C)[C@H]3C[C@H](O)[C@]12C 0
CC(N)C(=O)OC(C)(C)Cc1ccc(Cl)cc1 (configuration not stated) 0

Reprinted from the listing, 4 compounds:
Dopaminergic neuron differentiation score, inactive:
C=C(C)[C@@H]1CC[C@]2(C(=O)O)CC[C@]3(C)[C@H](CC[C@@H]4[C@@]5(C)CC[C@H](O)C(C)(C)[C@@H]5CC[C@]43C)[C@@H]12 0
OCCN1C[C@H](O)[C@@H](O)[C@H](O)[C@H]1CO 0
C=CCCCCCCCCC(=O)O 0
O=C(CCc1ccc(O)cc1)c1c(O)cc(O)cc1O 0

same assay, conditions: library: Tocriscreen; 2 uM; 4 weeks; BDNF 10 ng/ml + GDNF 10 ng/ml

Dopaminergic neuron differentiation score, inactive:
COC(=O)c1c(-c2cc(OC)c(OC)c(OC)c2)c2ccnc(OCc3ncccn3)c2c(=O)n1Cc1ccnc(C)c1 [T 0156 hydrochloride] 0
O=C1N(c2ccccc2)c2ccccc2C1(Cc1ccncc1)Cc1ccncc1 [Linopirdine dihydrochloride] 0
CC(C(O)c1ccc(O)cc1)N1CCC(Cc2ccccc2)CC1 (configuration not stated) [Ifenprodil hemitartrate] 0
